# According to the supplement of paper PMC8728848:
# This is one part of the list.
# B1: Vd7LysM (Verticillium dahliae) (protein)
# chain: RRGPEPKYPPAAGTSSYCSYWVDYEGDKSCSRVLEDNVVVLKDFARWNPTVGADCSGIKAGNSYCVEAFGEPEPIEVTTTTRAATTTTQPTATTTTFANGIATPQPTQSGMVTNCNKFHWIAEGVSCSQVISFQKITLADFVKWNPSVKSDCSGMWAGVNVCVGVVGSSTDTAKPTTTAPSNGVVTPQPTQPSMVTNCNKFHWIAKGVTCQQVISYQKISLADFVKWNPSVLSDCSGMWAEVQVCVGVIGSTPTTLATTTTTAGNGVSTPLPTQPGMVTNCAKFHWVAKGVTCNQIYSFQKITLEQFVSYNPTVKSDCSGMQAEVQVCVGLIAGTTPTTTRPPTTTAPGNGVSTPQPTQPGMVTNCAKFHWVAKGVTCNQIYSFQKITLEQFVSFNPTVKSDCTGMQAEVNVCVGLIGGNPTPTQTGNGIATPTPIQPGMVSNCKKFHWIAQGVTCQQVISFQKITLADFVKWNTGVGSDCRTMWAETNVCVGV
# Columns and labels:
# Test in all cases: glycan array binding signal (z-score within array); higher = stronger binding
# Settings in all cases: glycan notation: IUPAC condensed, linker removed
# [1] = target: Fuc(a1-2)Gal
# Outline: (§1)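 Arrays were curated from the Consortium for Functional Glycomics database, 3228 in total, and kept only where the protein sequence was available. Binding is expressed as a within-array Z-score. This score was averaged across arrays of the same protein sequence at different concentrations or buffers and across linkers, and negative values can be read as non-binding.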
# [2] = target: Fuc(a1-2)Gal(b1-3)GalNAc
# Outline: as §1
# [3] = target: Fuc(a1-2)Gal(b1-3)GalNAc(a1-3)[Fuc(a1-2)]Gal(b1-4)Glc
# Outline: as §1
# [4] = target: Fuc(a1-2)Gal(b1-3)GalNAc(a1-3)[Fuc(a1-2)]Gal(b1-4)GlcNAc
# Outline: as §1
# [5] = target: Fuc(a1-2)Gal(b1-3)GalNAc(b1-3)Gal
# Outline: as §1
# [6] = target: Fuc(a1-2)Gal(b1-3)GalNAc(b1-3)Gal(a1-4)Gal(b1-4)Glc
# Outline: as §1
# [7] = target: Fuc(a1-2)Gal(b1-3)GalNAc(b1-4)[Neu5Ac(a2-3)]Gal(b1-4)Glc
# Outline: as §1
# [8] = target: Fuc(a1-2)Gal(b1-3)GlcNAc
# Outline: as §1
# [9] = target: Fuc(a1-2)Gal(b1-3)GlcNAc(b1-2)Man(a1-3)[Fuc(a1-2)Gal(b1-3)GlcNAc(b1-2)Man(a1-6)]Man(b1-4)GlcNAc(b1-4)GlcNAc
# Outline: as §1
# [10] = target: Fuc(a1-2)Gal(b1-3)GlcNAc(b1-2)Man(a1-3)[Fuc(a1-2)Gal(b1-3)GlcNAc(b1-2)Man(a1-6)]Man(b1-4)GlcNAc(b1-4)[Fuc(a1-6)]GlcNAc
# Outline: as §1
# [11] = target: Fuc(a1-2)Gal(b1-3)GlcNAc(b1-3)Gal(b1-4)Glc
# Outline: as §1
# [12] = target: Fuc(a1-2)Gal(b1-3)GlcNAc(b1-3)GalNAc
# Outline: as §1
# [13] = target: Fuc(a1-2)Gal(b1-3)GlcNAc(b1-3)[Fuc(a1-2)Gal(b1-3)GlcNAc(b1-6)]GalNAc
# Outline: as §1
# [14] = target: Fuc(a1-2)Gal(b1-3)GlcNAc(b1-3)[Gal(b1-4)GlcNAc(b1-6)]Gal(b1-4)Glc
# Outline: as §1
# [15] = target: Fuc(a1-2)Gal(b1-3)GlcNAc(b1-3)[Neu5Ac(a2-6)Gal(b1-4)GlcNAc(b1-6)]Gal(b1-4)Glc
# Outline: as §1
# [16] = target: Fuc(a1-2)Gal(b1-3)GlcNAc6S
# Outline: as §1
# [17] = target: Fuc(a1-2)Gal(b1-3)[Fuc(a1-4)]GlcNAc
# Outline: as §1
# [18] = target: Fuc(a1-2)Gal(b1-3)[Fuc(a1-4)]GlcNAc(b1-2)Man(a1-3)[Fuc(a1-2)Gal(b1-3)[Fuc(a1-4)]GlcNAc(b1-2)Man(a1-3)]Man(b1-4)GlcNAc(b1-4)GlcNAc
# Outline: as §1
# [19] = target: Fuc(a1-2)Gal(b1-3)[Fuc(a1-4)]GlcNAc(b1-2)Man(a1-3)[Fuc(a1-2)Gal(b1-3)[Fuc(a1-4)]GlcNAc(b1-2)Man(a1-6)]Man(b1-4)GlcNAc(b1-4)[Fuc(a1-6)]GlcNAc(b1-4)[Fuc(a1-6)]GlcNAc
# Outline: as §1
# [20] = target: Fuc(a1-2)Gal(b1-3)[Fuc(a1-4)]GlcNAc(b1-3)[Fuc(a1-3)[Gal(b1-4)]GlcNAc(b1-6)]Gal(b1-4)Glc
# Outline: as §1
# [21] = target: Fuc(a1-2)Gal(b1-3)[Fuc(a1-4)]GlcNAc(b1-3)[Gal(b1-4)GlcNAc(b1-6)]Gal(b1-4)Glc
# Outline: as §1
# [22] = target: Fuc(a1-2)Gal(b1-4)Glc
# Outline: as §1
# [23] = target: Fuc(a1-2)Gal(b1-4)Glc6S
# Outline: as §1
# [24] = target: Fuc(a1-2)Gal(b1-4)GlcNAc
# Outline: as §1
# [25] = target: Fuc(a1-2)Gal(b1-4)GlcNAc(b1-2)Man
# Outline: as §1
# [26] = target: Fuc(a1-2)Gal(b1-4)GlcNAc(b1-2)Man(a1-3)[Fuc(a1-2)Gal(b1-4)GlcNAc(b1-2)Man(a1-6)]Man(b1-4)GlcNAc(b1-4)GlcNAc
# Outline: as §1
# [27] = target: Fuc(a1-2)Gal(b1-4)GlcNAc(b1-2)Man(a1-3)[Fuc(a1-2)Gal(b1-4)GlcNAc(b1-2)Man(a1-6)]Man(b1-4)GlcNAc(b1-4)[Fuc(a1-6)]GlcNAc
# Outline: as §1
# [28] = target: Fuc(a1-2)Gal(b1-4)GlcNAc(b1-2)[Fuc(a1-2)Gal(b1-4)GlcNAc(b1-4)]Man(a1-3)[Fuc(a1-2)Gal(b1-4)GlcNAc(b1-2)Man(a1-6)]Man(b1-4)GlcNAc(b1-4)GlcNAc
# Outline: as §1
# [29] = target: Fuc(a1-2)Gal(b1-4)GlcNAc(b1-3)Gal(b1-4)GlcNAc
# Outline: as §1
# [30] = target: Fuc(a1-2)Gal(b1-4)GlcNAc(b1-3)Gal(b1-4)GlcNAc(b1-2)Man(a1-3)[Fuc(a1-2)Gal(b1-4)GlcNAc(b1-3)Gal(b1-4)GlcNAc(b1-2)Man(a1-6)]Man(b1-4)GlcNAc(b1-4)GlcNAc
# Outline: as §1
binder,measurement,setting,value
B1,glycan array binding signal (z-score),[1],-0.054
same,glycan array binding signal (z-score),[2],0.44
same,glycan array binding signal (z-score),[3],0.018
same,glycan array binding signal (z-score),[4],-0.691
same,glycan array binding signal (z-score),[5],-0.298
same,glycan array binding signal (z-score),[6],-0.625
same,glycan array binding signal (z-score),[7],0.56
same,glycan array binding signal (z-score),[8],-0.2
same,glycan array binding signal (z-score),[9],0.203
same,glycan array binding signal (z-score),[10],-0.75
same,glycan array binding signal (z-score),[11],-0.621
same,glycan array binding signal (z-score),[12],-0.215
same,glycan array binding signal (z-score),[13],-0.01
same,glycan array binding signal (z-score),[14],-0.772
same,glycan array binding signal (z-score),[15],-1.86
same,glycan array binding signal (z-score),[16],0.367
same,glycan array binding signal (z-score),[17],-0.646
same,glycan array binding signal (z-score),[18],0.384
same,glycan array binding signal (z-score),[19],-0.925
same,glycan array binding signal (z-score),[20],1.63
same,glycan array binding signal (z-score),[21],-1.91
same,glycan array binding signal (z-score),[22],-0.328
same,glycan array binding signal (z-score),[23],2.67
same,glycan array binding signal (z-score),[24],-0.12
same,glycan array binding signal (z-score),[25],0.241
same,glycan array binding signal (z-score),[26],2.13
same,glycan array binding signal (z-score),[27],-0.923
same,glycan array binding signal (z-score),[28],-0.492
same,glycan array binding signal (z-score),[29],-1.33
same,glycan array binding signal (z-score),[30],0.254

# Shown with bars between the fields: entries from further up.
binder | measurement | setting | value
B1 | glycan array binding signal (z-score) | [1] | -0.054
same | glycan array binding signal (z-score) | [2] | 0.44
